Assay results from patent US7285618B1, “Polypeptides having neutrophil stimulating activity” (Japan Tobacco Inc., priority 2000, dated 2007).
Read-outs that look alike come from different tables or passages of the source. Not every detail of the peptide structures is certain; ends, links or a residue may be inferred. Where a SMILES comes first, the peptide text is derived from it. Where no end group is shown, it is not given here. The star is where a group is joined. For = O=C*

Experiments:
G protein (Gi) = assay: GTPase activity of purified Gi reconstituted on a phospholipid membrane; assay type: biochemical, rabbit; conditions: even at 100 μM
Source text: G protein (Gi), which is present in neutrophils and involved in […] of fMLP, was extracted from the rabbit liver and purified (J. Biol. Chem. 267, 16237-16243, 1992). The purified Gi was reconstituted on a phospholipid membrane, and it was challenged by fCyt b (1-15) or COSP-1. We measured GTPase activity for these stimulations.

[1] = test system: monocyte and lymphocyte mixed cells; assay: β-HA secretion from monocyte and lymphocyte mixed cells; assay type: cell-based, human
[2] = test system: differentiated HL60 cells; assay type: cell-based, human
Procedure: a. Cultivation of HL60 Cells and Induction to the Differentiated Neutrophil-Like Cells For cultivation, heat-inactivated FCS (final concentration; 10%), streptomycin (final concentration; 100 mg/l), penicillin G (final concentration of 10^5 units/l) and RPMI-1640 culture solution containing 10 mM Hepes (pH 7.4) were used. Cells were cultivated at a cell density of 2×10^5-1.5×10^6 cells/ml in a plastic flask (80 cm^2, 260 ml, Nunc) at 37° C. under stationary conditions with a 5% of CO2 concentration and a 100% of humidity. […] c. […] Measuring β-HA Enzyme Activity The amount of β-HA secreted into the reaction supernatant was determined by measuring the absorbance at 415 nm of p-nitrophenol that was generated by an enzymatic reaction involving p-nitrophenyl N-acetyl-β-D-glucosaminide as a substrate. To be specific, 90 μl of the reaction supernatant was transferred to a 96-well Immuno plate (Nunc) and 60 μl of a substrate solution (10 mM p-nitrophenyl N-acetyl-β-D-glucosaminide/40 mM citrate, 70 mM Na2HPO4, pH 4.5) was added to initiate an enzymatic reaction. Following a 1-hr reaction at 37° C., 100 μl of a reaction quencher (400 mM glycine, pH 10.7) was added to stop the reaction and the absorbance at 415 nm was measured. As a control, cells were treated with Triton X-100 at a final concentration of 0.05% and the amount of β-HA in the supernatant was measured. As another control, the amount of β-HA secreted from cells upon stimulation with fMLP at a final concentration of 10 μM was measured.

human neutrophils = assay: β-HA secretion from human neutrophils; assay type: cell-based
Procedure: b. Preparation of Human Leukocytes
Thirty milliliters of human peripheral blood (containing 500 units of heparin sodium) was plated on 5 ml of Lymphocepal I in each of 4 centrifugal tubes and spun down (400 g, 30 min) at room temperature. After spinning, the monocytes and lymphocytes forming a turbid layer at the interface between the plasma and Lymphocepal I were carefully taken to be removed. […] The Percoll layer containing neutrophils was carefully taken and washed with physiological saline. […]
The purities of these monocyte-lymphocyte mixed cells and neutrophils were assayed by analysis with a flow cytometer. […] Using a flow cytometer, forward scatter intensity and side scatter intensity were measured on a linear scale only for the negative cells (living cells) in the cell suspension for the propidium iodide-staining. […]
The amount of β-HA secreted into the reaction supernatant was determined by measuring the absorbance at 415 nm of p-nitrophenol that was generated by an enzymatic reaction involving p-nitrophenyl N-acetyl-β-D-glucosaminide as a substrate. […] Following a 1-hr reaction at 37° C., 100 μl of a reaction quencher (400 mM glycine, pH 10.7) was added to stop the reaction and the absorbance at 415 nm was measured. As a control, cells were treated with Triton X-100 at a final concentration of 0.05% and the amount of β-HA in the supernatant was measured. […]

[3] = test system: differentiated HL60 cells; assay: Migration promoting activity (Chemotaxis Cells), differentiated HL60 cells; assay type: cell-based, human
Procedure: The migration promoting activity of each of the polypeptides of interest was measured using Chemotaxis Cells (Kurabo) as follows: The differentiated HL60 cells or undifferentiated HL60 cells were washed three times with ice-cooled HBHS and a cell suspension was prepared at a cell density of 4×10^6 cells/ml. The cell suspension was incubated at 37° C. for 10 minutes; thereafter, 500 μl of the cell suspension was transferred to Chemotaxis Cells (2×10^6 cells/Cell), which were put on a micro-well plate filled with pre-heated (37° C.) HBHS containing 1 ml of polypeptide and incubation was performed at 37° C. for 1 hour. Then, the Chemotaxis Cells were removed from the plate and the number of cells that had migrated in each well was counted.
Migration promoting activity was expressed by a chemotaxis index, or the number of cells that migrated upon stimulation was divided by the number of cells migrated without stimuli.
The activity of the human homologues of COSP-1 and fCyt b (1-15) for promoting β-HA secretion and migration promoting activities were measured following the methods described in Examples 4 and 5, respectively. […]

Molecule	stimulation of the GTPase activity of Gi (G protein (Gi))	β-HA secretion from monocyte and lymphocyte mixed cells (%/total) [1] [%/total]	secretion of β-HA in the monocyte and lymphocyte mixed cells ([1]; stimulation with 10 μM) [%]	EC50 ([2]; read-out: EC50 of β-HA secretion from differentiated HL60 cells) [µM]	β-HA secretion from differentiated HL60 cells (%/total) ([2]; total = β-HA released with 0.05% Triton X-100)	β-HA secretion from neutrophil cells (%/total) (human neutrophils; human neutrophils)	secretion of β-HA from human neutrophils (human neutrophils; stimulation with 10 μM) [%]	migration promoting (attracting) activity [3]	stimulating activity relative to the value for fCyt b (1-15) ([2]; β-HA secretion, differentiated HL60 cells)	EC50 ([2]; β-HA secretion, differentiated HL60 cells, read-out: EC50) [µM]
CC[C@H](C)[C@H](NC(=O)[C@H](CC(N)=O)NC(=O)[C@@H](NC(=O)[C@H](CCSC)NC=O)[C@@H](C)O)C(=O)N[C@@H](CCCNC(=N)N)C(=O)N[C@@H](CCCCN)C(=O)N[C@@H](CO)C(=O)N[C@@H](Cc1c[nH]cn1)C(=O)N1CCC[C@H]1C(=O)N[C@@H](CC(C)C)C(=O)N[C@@H](CCSC)C(=O)N[C@@H](CCCCN)C(=O)N[C@H](C(=O)N[C@H](C(=O)N[C@@H](CC(N)=O)C(=O)O)[C@@H](C)CC)[C@@H](C)CC [fCyt b (1-15), fMet-Thr-Asn-Ile-Arg-Lys-Ser-His-Pro-Leu-Met-Lys-Ile-Ile-Asn] (For-MTNIRKSHPLMKIIN-OH)	no stimulating activity	20.0 ± 7.8	20.0±7.8	0.038	76.2	58.3	58.3	attracting activity	–	–
MTNIRKSHPLMKIIN [Cyt b (1-15)]	–	–	–	–	–	–	–	–	less than 1/1000	> 6
